Measured values: publication PMC11180011

Tested on: DasR (Streptomyces lincolnensis NBRC_13054)
Test: EMSA
Settings: EMSA kit, 20 uL, 50 ng/uL Cy5 probe, 6% non-denaturing PAGE; fifth lane with 10 mg/mL salmon sperm DNA; salt and temperature not given; recombinant protein; protein details: 6xHis (pCold II); label: Cy5; probe letters rebuilt from the primers and the genome

Row | Sequence | binding result
1 | AGCCAGTGGCGATAAGATCCCGAGGTCGACGCCCGAGCCGGTGAACAACGTCCGTTCCCCGTACCGGACATTGGCCTCATGGCACGTCAACACGGTGCGTCCGGCCGGGACCGAGGTCTGCGGAAGGGTGATCGCCAGGCGCGCTTCCTCACGCATCCCCTGACTGGCCTCGTCCAGCTTGGCCTTGGCCTGGGACACCCGGTCCTGGTGCACCGAGGCGGCGCGGCCCGCCGATTCCTGAGCCTGTCGCTGAAGGGCGCCCGCGTGGATACGGGGCACCCCCGACGAAGCCTTGTTCTTATCGCCACTGGCT (double strand) [lmbU promoter] | no binding
2 | AGCCAGTGGCGATAAGATCGAGGACCTGACCGGCACGACCGGGGCGCGCGCCGCCTCCGGAGCCGCCGCGACCGGTGCCGTCGCCCGTCGCACCGTCCTCGTCACCGCCGCCCTGGGGGAGACCACCCGCACCCGCGCCACGGTCCTGCCGGACCTGTCCGCGCCGCCGCCCCTGCCCACGGACCTCGTCCCGCCCCTCGTCGAACTGCCGCGGTACACCGGGGCGTTGCCGCCGCACACGGTCCTGGAGCCGATGGCGTTCGCGGAACTGCTCGCGGAGTTCGCCGCGGTGGCCCTCGCCGTGCACGGCCCGGACGACGTCGAGCGCTTTCGGCGCCACTGGGACGGCACCCGGGTCGGCGTGCCCGCCCTCACCGTGACGGACAGTCCAGGGGCACTCGGCGGCTGGCCGGTGGACAGCGAGGGCACGACGGCCGCCCGACTGCCCCTGGTCGAGGCCGGAACCGTGGTCGGGTGCGCCCTGGACCGGGCCACCGCCGATGCCCTGGGACGCGCCCCCACCGGGCGCGCCTCGCGCGAGGTGTCCGGCCTCGCGGCCTACCCGGCCAACCTCGTGGTGGAGCTGCTTATCGCCACTGGCT (double strand) [lmbR promoter] | no binding

For at least one entry, the source does not settle the construct or the ends of the probe. Negatives hold for the conditions tested.
